Source: article PMC10163288
This is one part of the list.

B1: il10ra_site1_sap_22_mot_HHH_b1_05326_000000242_0001_1_20_H_._HHH_b1_05575_0001_0000500022_0000001_0_0001 (protein)
chain: SSSSDSEEVFRLLEEAAELLRDGDPEEARKLLEEALELAEELGDRNFAENIRYLLEDVERHSSSS
B2: il10ra_site1_sap_11_mot_HHH_b2_07442_000000239_0001_40_54_H_._HHH_b2_05772_af2_0001_0000100001_0000001_1_0001 (protein)
chain: SSSSDEEYEEVEEVIREAIELYKNGDPEEARELLEELLEKLEELGNWVAVHSVRHLLELLSSSSS
B3: il10ra_site1_sap_24_mot_HHH_b1_01563_af2_000000118_0001_40_54_H_._HHH_b2_01412_0001_0000100003_0000001_0_0001 (protein)
chain: SSSSSEAEELYELLRRINEALSEGDEELVEKLLEEVKKIAEELGNRVFRMQIEFLEEILKSSSSS
B4: il10ra_site1_normal_mot_HHH_b2_03827_000000021_0001_1_19_H_._HHH_b1_03568_0001_0000100001_0000001_0 (protein)
chain: SSSSEEREEAERLLEQIKELLEEGDLEEVWELLKRLAEIAFKLNDEELLEELLRLSHLAARNSSS
B5: il10ra_site1_normal_mot_745ba417a8ead33aea5db1974d5d2f48_0001_1_af2_000000024_0001_16_30_H_._HHH_b1_07698_0001_0000300026_0000001_0 (protein)
chain: SSSSDREVLELIVRASRLILRGNPEEAQEVIEEAERLAEEIGDPRLRLSVRFEKHLLESFESSSS
B6: il10ra_site1_sap_15_mot_HHH_b2_00230_000000227_0001_1_19_H_._HHH_b1_00399_0001_0000100015_0000001_0_0001 (protein)
chain: SSSSSSEVAERSARHFFEAIRQIDDEEYVKLALRFMRADAEWTNDPEIHELVRELEELFSSSSSS
B7: il10ra_site1_normal_mot_HHH_b2_01310_000000089_0001_41_55_H_._HHH_b1_04734_af2_0001_0000300019_0000001_0_af2pred_dldesign_0_af2pred (protein)
chain: SSSSSEKREEVKRILEKVKELIEEGKEEEAVELLRKAVRLATELGDSELLQEIKELAKKLESSSS
B8: il10ra_site1_normal_mot_HHH_b1_05672_af2_000000246_0001_1_19_H_._HHH_b2_02879_af2_0001_0000400017_0000002_0 (protein)
chain: SSSSDEEQRVAELLFRVVRLWYEGNPEEAEEVLKEAERLAKELGDEELERYVEIAELFVRSSSSS
B9: il10ra_site1_sap_22_mot_HHH_b1_08593_000000040_0001_43_57_H_._HHH_b2_00928_0001_0000200013_0000002_0_0001 (protein)
chain: SSSSDEEQEELLELLREIFRLALRGDPEEAEKLLKQVKELAEELGDEVALKMVEDLEAALRSSSS
B10: il10ra_site1_sap_24_mot_HHH_b1_03314_af2_000000278_0001_42_55_H_._HHH_b2_04543_af2_0001_0000400009_0000002_0_0001 (protein)
chain: SSSSSRDAEQTARALLKFARQLRNPEARKIALEEAEELAEKAGDEELLEEIEEELEKVGSSSSSS
B11: il10ra_site1_normal_mot_HHH_b1_04693_000000238_0001_19_36_H_._HHH_b2_01083_0001_0000200019_0000001_1 (protein)
chain: SSSSTQEEYRAVEEAIKEAIELFRRGNPEEAREVLEEAIEFVEKRGNYAAKFALERLLRLLSSSS
B12: il10ra_site1_normal_mot_8756ee2cf497b5429c717dfc0c0bcfd6_0001_000000186_0001_1_13_H_._HHH_b1_04847_0001_0000300024_0000001_0_af2pred_0001 (protein)
chain: SSSSDASKRVVELLREVVELLEQGNEEEAERLLEEAHEIAEENNNLNSLAIVEFILRLLKSSSSS
B13: il10ra_site1_normal_mot_0750aae41c39e4229e2ea8fa354cc919_0001_1_000000144_0001_37_51_H_._HHH_b2_02525_0001_0000100006_0000001_0 (protein)
chain: SSSDEEQQVLELLARAARLAWRGNPEEARELVEEAEELAKELNDPKLEIAVRFWKRLDEERSSSS
B14: il10ra_site1_normal_mot_HHH_b1_05879_000000258_0001_1_19_H_._HHH_b1_03479_0001_0000100008_0000001_0 (protein)
chain: SSSSNTLEWSVRFALEEAERLYELGDPERAEELLRKLVELLREAGNEELVEEVERVLRELNSSSS
B15: il10ra_site1_sap_12_mot_HHH_b1_03277_000000286_0001_44_57_H_._HHH_b2_06600_af2_0002_0000100004_0000002_0_0001_af2pred_dldesign_0_af2pred (protein)
chain: SSSSSEESKAAKKAYEYAKFLKEAGAPELARRTLEAALEIAKQGNDEELIKEIEKLLEEISSSSS
B16: il10ra_site1_normal_mot_HHH_b1_06994_000000193_0001_40_55_H_._HHH_b2_03412_0001_0000200023_0000001_0 (protein)
chain: SSSSDQEEELVKAALRLARQAAEAGDEEAVRFLLLAAKLIAKEGNDEELLEEVEKLEEELSSSSS
B17: il10ra_site1_sap_24_mot_HHH_b2_02736_000000092_0001_22_38_H_._HHH_b1_01843_af2_0001_0000200014_0000001_0_0001 (protein)
chain: SSSSDEELQEELRELIKEVEELLERGDTREAARLAQEILRLIIQLGDEELLRLLWEIIANGSSSS
B18: il10ra_site1_sap_22_mot_HHH_b1_06798_000000292_0001_1_19_H_._HHH_b1_02695_0001_0000700087_0000002_0_0001 (protein)
chain: SSSFIAEFSLEAAKRALEELAKRGDEERFKHLTETVARFLEKLGNEELARELREFAEQLESSSSS
B19: il10ra_site1_normal_mot_HHH_b2_00984_000000042_0001_1_20_H_._HHH_b1_06669_0001_0000400035_0000001_0 (protein)
chain: SSSSELEEEIRKLLEELKELVEEGDVEEAARLAQEIVRFIFELGDEELLKEVWELIRLAVERSSS
B20: il10ra_site1_normal_mot_HHH_b2_03425_000000200_0001_22_39_H_._HHH_b2_05523_af2_0001_0000200005_0000001_0 (protein)
chain: SSSSDERAEEAYELLRELIEAVRNGNEEEFEKIAERIEELIRELGSELFRFVLEHLERDLGSSSS
B21: il10ra_site1_normal_mot_b26a303360aa2756ef5b79665ce52f45_0001_000000179_0001_1_11_H_._HHH_b1_05267_0001_0000100009_0000001_0_af2pred_0001 (protein)
chain: SSSSSRELEEVQELIKEALRLLEEGNPEEARRVLEEAEELAEEAGNPLLEHIVRSLLEQVRSSSS
B22: il10ra_site1_normal_mot_HHH_b1_06816_000000239_0001_1_19_H_._HHH_b1_00941_0003_0000300047_0000002_0 (protein)
chain: SSSSEEEAEELVKEVEEEVRRLLEEGNPDEAFRLVREVIERLVELNNPEAARRLSQVFVETSSSS
B23: il10ra_site1_normal_mot_HHH_b2_03328_af2_000000127_0001_1_19_H_._HHH_b2_01666_0001_0000100010_0000001_0 (protein)
chain: SSSSSSEDHELYRISREILELIAEGDPEEAEELLRELEELAKEVGNFIARFVVRMLKARLSSSSS
B24: il10ra_site1_sap_16_mot_HHH_b1_01754_af2_000000279_0001_1_18_H_._HHH_b2_07461_0001_0000300018_0000002_0_0001 (protein)
chain: SSSSDEEEKEEAEKILEEAKELYEEGNPEEAIRLLAELLRLLFRIDEEILQAVWRLAKEISSSSS

biological target: il10ra, Q13651; test: yeast display titration

Apparent Kd, inactive:
B1 no binding seen
B2 no binding seen
B3 no binding seen
B4 no binding seen
B5 no binding seen
B6 no binding seen
B7 no binding seen
B8 no binding seen
B9 no binding seen
B10 no binding seen
B11 no binding seen
B12 no binding seen
B13 no binding seen
B14 no binding seen
B15 no binding seen
B16 no binding seen
B17 no binding seen
B18 no binding seen
B19 no binding seen
B20 no binding seen
B21 no binding seen
B22 no binding seen
B23 no binding seen
B24 no binding seen

Quoted from the entries so far (2 entries):
Apparent Kd, inactive:
B18 no binding seen
B19 no binding seen
